For at least one compound, name, drawing or mass did not settle the structure.
Experiments:
[1] = test system: mouse ES cells; assay: Test Example 1: addition of various inhibitors, Cdx2 expression by real-time PCR; assay type: cell-based; settings: inhibitor plus BIO (5 μM) and DAPT (10 μM) on MEF cells for 8 days (12th day of cultivation), Noggin 500 ng/mL, Dorsomorphin 200 nM, KAAD-Cyclopamine 250 nM
Protocol: In order to clarify what mechanism induces the intestinal differentiation in a case where mouse ES cells are used as a starting material, inhibitors against various signal transduction systems were added besides BIO and DAPT, and conditions in which expression of an intestinal marker Cdx2 decreases were evaluated.
As an inhibitor, 500 ng/mL of Noggin (R&D systems) or 200 nM of Dorsomorphin (SIGMA-ALDRICH), which is a BMP-signaling inhibitor; 1 μM of LE540 (Wako), which is a retinoic-acid-signaling inhibitor; 250 nM of KAAD-Cyclopamine (Calbiochem), which is a hedgehog-signaling inhibitor; or 10 μM of AMD3100 (SIGMA-ALDRICH), which is a Cxcr4 inhibitor, was added thereto. […] After that, the above-sorted definitive endoderm cells were cultured in the presence of BIO (5 μM) and DAPT (10 μM) as well as the above-mentioned inhibitor for 8 days (until the 12th day of cultivation) in accordance with the method described in Example 1, RNAs were extracted from the cells by the method described in Example 1, and expression of the Cdx2 gene, namely an intestinal marker, was analyzed by real-time PCR. The real-time PCR was carried out by use of the primer pairs used in Example 1 (see Table 1), Thunderbird SYBR qPCR mix (Toyobo), and 7500 Fast Real-Time PCR system (ABI Company).

[2] = test system: ES cells; assay: Effect of signalling inhibitors on intestinal differentiation by BIO and DAPT (Cdx2 RT-PCR and immunohistochemistry); assay type: cell-based, mouse; settings: inhibitor added with BIO and DAPT on MEF cells; RT-PCR and anti-Cdx2 immunohistochemistry, day 12

SMILES	expression of Cdx2 [1]	intestinal differentiation mediated by BIO and DAPT (Cdx2 expression) [2]
c1cc(-c2cnn3cc(-c4ccc(OCCN5CCCCC5)cc4)cnc23)ccn1 [Dorsomorphin]	lowered	–
O=c1cc(N2CCOCC2)oc2c(-c3ccccc3)cccc12 [LY294002]	–	partially inhibited
